Reference: patent publication US20100183585A1, “METHODS AND COMPOSITIONS FOR TREATING TUMORS AND METASTASES THROUGH THE MODULATION OF LATEXIN” (University of Kentucky Research Foundation, priority 2008, published 2010)
Results are given in words; binding and its absence hold for the method and conditions named. Some entries that bind do so weakly or less than the wild type. Sequences can lack the tags named with a protein.

Sequences of proteins named here, by UniProt entry; tags and fusion partners are left off. Residues count along the entry.
UniProt P10126, residues 2-462: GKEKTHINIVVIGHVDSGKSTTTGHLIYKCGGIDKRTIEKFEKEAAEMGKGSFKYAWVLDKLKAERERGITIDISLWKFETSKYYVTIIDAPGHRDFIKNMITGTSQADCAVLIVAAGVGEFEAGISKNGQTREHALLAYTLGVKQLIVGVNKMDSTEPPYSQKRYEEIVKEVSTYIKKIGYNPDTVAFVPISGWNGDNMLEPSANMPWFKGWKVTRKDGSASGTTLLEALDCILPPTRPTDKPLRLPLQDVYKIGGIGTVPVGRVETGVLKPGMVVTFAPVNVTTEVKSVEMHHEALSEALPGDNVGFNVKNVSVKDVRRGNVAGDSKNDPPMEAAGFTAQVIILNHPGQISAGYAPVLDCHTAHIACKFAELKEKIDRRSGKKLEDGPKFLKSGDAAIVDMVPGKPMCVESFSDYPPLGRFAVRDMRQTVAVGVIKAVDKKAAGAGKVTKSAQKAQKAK

Target: eEF1A1 (UniProt P10126)
Assay: TAP purification of tagged latexin from FDCP-1 lysates, Western blot with anti-eEF1A1 antibody (association in a lysate; may be indirect)

binding: binds
B1: TAP-tagged latexin (TAP-m(ouse)latexin) (protein, mouse, UniProt P70202 1-222, looked up, not shown: large carriers)
chain: MEIPPTHYAASRAASVAENCINYQQGTPHKLFLVQTVQQASKEDIPGRGHKYHLKFSVEEIIQKQVTVNCTAEVLYPQMGQGSAPEVNFTFEGEIGKNPDEEDNTFYQSLMSLKRPLEAQDIPDNFGNVSPQMKPVQHLAWVACGYVMWQNSTEDTWYKMLKIQTVKQVQRNDDFIELDYTILLHDIASQEIIPWQMQVLWHPQYGTKVKHNSRLPKEGQAE
